PubChem BioAssay AID1259424 – University of Nebraska Medical Center – 2018
Assay: 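Find knockdowns that reproduce the expression shifts seen after KSR1 loss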 (primary screen). System: human HCT116 colon cancer cells. Knock-down reagent: siRNA pool against human genes, 50 nM. Read-out: 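Log2 levels of six mRNAs (branched-DNA multiplex), adjusted by two reference genes and the non-targeting median, then scored against the average KSR1 knockdown pattern as Pearson r and euclidean distance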. Direction: mean correlation with KSR1 profile: higher = expression change more like KSR1 knockdown.
This is one part, drawn at random, of about 14,000 reagents. 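Higher correlation or smaller distance means closer resemblance to KSR1 loss; control wells, including KSR1 knockdowns, recur on many plates.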 Further read-outs or replicates are left out here. Not given: the time to read-out.

For MTX1 (metaxin 1), what was measured?
mean correlation with KSR1 profile: -0.581

With MYOZ1 (myozenin 1), what does the deposit list?
mean correlation with KSR1 profile: -0.677

What is on record for PINX1 (PIN2 (TERF1) interacting telomerase inhibitor 1)?
mean correlation with KSR1 profile: 0.483

What did the screen give for TRAPPC11 (trafficking protein particle complex subunit 11)?
mean correlation with KSR1 profile: -0.334

What did the screen give for DEF8 (differentially expressed in FDCP 8 homolog)?
mean correlation with KSR1 profile: -0.349

With CHI3L2 (chitinase 3 like 2), what does the deposit list?
mean correlation with KSR1 profile: -0.217

How did the screen score PMAIP1 (phorbol-12-myristate-13-acetate-induced protein 1)?
mean correlation with KSR1 profile: -0.569

What is on record for KCTD5 (potassium channel tetramerization domain containing 5)?
mean correlation with KSR1 profile: -0.457

What is on record for CTSG (cathepsin G)?
mean correlation with KSR1 profile: 0.0471

Which result is listed for UBR7 (ubiquitin protein ligase E3 component n-recognin 7)?
mean correlation with KSR1 profile: -0.0409

Which result is listed for MTMR6 (myotubularin related protein 6)?
mean correlation with KSR1 profile: 0.54

What did the screen give for EXT2 (exostosin glycosyltransferase 2)?
mean correlation with KSR1 profile: 0.143

What did the screen give for CASTOR3P (CASTOR family member 3, pseudogene)?
mean correlation with KSR1 profile: 0.346

What is on record for SUPT16H (SPT16 homolog, facilitates chromatin remodeling subunit)?
mean correlation with KSR1 profile: -0.779

What is on record for ENPP4 (ectonucleotide pyrophosphatase/phosphodiesterase 4)?
mean correlation with KSR1 profile: -0.177

How did the screen score BARHL1 (BarH like homeobox 1)?
mean correlation with KSR1 profile: -0.107

With MACC1 (MET transcriptional regulator MACC1), how do the results read?
mean correlation with KSR1 profile: 0.624

What is on record for PCSK5 (proprotein convertase subtilisin/kexin type 5)?
mean correlation with KSR1 profile: -0.308

For TCF4 (transcription factor 4), what was measured?
mean correlation with KSR1 profile: -0.19

With PARP2 (poly(ADP-ribose) polymerase 2), what was measured?
mean correlation with KSR1 profile: -0.404

For DIABLO (diablo IAP-binding mitochondrial protein), what was measured?
mean correlation with KSR1 profile: -0.733

What is on record for ZNF134 (zinc finger protein 134)?
mean correlation with KSR1 profile: -0.197

With KIF21A (kinesin family member 21A), what was measured?
mean correlation with KSR1 profile: -0.339

What is on record for ACTR1A (actin related protein 1A)?
mean correlation with KSR1 profile: -0.141

With TAB2 (TGF-beta activated kinase 1 (MAP3K7) binding protein 2), what does the deposit list?
mean correlation with KSR1 profile: 0.149

Which result is listed for AP1G2 (adaptor related protein complex 1 subunit gamma 2)?
mean correlation with KSR1 profile: -0.314

What did the screen give for MAPKAPK5-AS1 (MAPKAPK5 antisense RNA 1)?
mean correlation with KSR1 profile: 0.31

For DYRK2 (dual specificity tyrosine phosphorylation regulated kinase 2), what was measured?
mean correlation with KSR1 profile: 0.348
